# Test results as given in PubChem BioAssay AID1347076 (National Center for Advancing Translational Sciences (NCATS), 2019).
# Among all 400,000 compounds or so, about 13,000 (3.2%) were called active. The inconclusive results got no clear call from the source; some entries with a clear call stand among them for comparison. Calls follow the shape of the dose curve; as a rule, active = well fitted cell-killing curve with a large enough effect; inconclusive = small, poorly fitted or top-dose-only effect, or effect the other way; inactive = flat fitted curve, though single readings scatter. Potencies of inconclusive entries are doubtful fits and often do not repeat.
# Test: qHTS assay for MDR1-selective chemotherapeutics: Primary screen using the drug-selected MDR subline cells KB-V1; also: nearly all actives have a fitted effect of over 60% in size
# Settings: KB-V1 MDR cells viability, CellTiter-Glo, 72 h; series mostly up to 46.1 µM
# How it was run: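 KB-V1 cells (P-gp-expressing MDR subline of KB-3-1) in phenol-red-free DMEM with 10% FBS were exposed to library compounds over a concentration series for 72 h at 37 degrees C. Viability read by CellTiter-Glo luminescence; concentration-effect curves fitted after normalization.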
# Potency is read from the fitted curve at half-maximal effect.
row,SMILES,Potency
1,O=C(COC(=O)CNC(=O)c1ccccc1)Nc1nc(-c2ccccc2)cs1,"inconclusive: 29.1 µM [cytotoxic, single point]"
2,Cc1cc(S(=O)(=O)N2CCN(c3c(C)cccc3C)CC2)ccc1F,"inconclusive: 20.6 µM [cytotoxic, single point]"
3,CCc1ccc(OCc2nc(-c3ccc(OC)c(OC)c3)no2)c(Br)c1,inactive
4,CCCNC(=O)c1nc(C)n(-c2cc(Cl)cc(Cl)c2)n1,"inconclusive: 29.1 µM [cytotoxic, single point]"
5,Cc1cccc(NC(=O)CCCN2C(=S)NC(C)(C)CC2C)c1C (centres undefined),inactive
6,C=CCN1C(c2cccc(C(F)(F)F)c2)=CS/C1=C(/C#N)c1nnc(N2CCOCC2)n1-c1ccccc1,active: 4.11 µM
7,COc1ccc(Cl)cc1CC=NNC(=O)c1cccc(C)c1O,inactive
8,CN1C(=O)/C(=C/C=C2\SCCN2C)N(C)C1=S,"inconclusive: 29.1 µM [cytotoxic, single point]"
9,O=C(NCc1nc(-c2ccc(Cl)cc2)no1)c1ccc2c(c1)OCO2,"inconclusive: 23.1 µM [cytotoxic, partial curve, poor fit]"
10,CCCn1c(CNC(=O)c2cccs2)nc2ccccc21,"inconclusive: 3.66 µM [cytotoxic, full curve]"
11,COc1ccc(-n2c(=O)c3ccccc3n(Cc3cccc(C)c3)c2=O)cc1OC,inactive
12,COc1ccc(F)cc1-c1cc(NC=O)c2ncc(-c3cccc(C(F)(F)F)c3)n2c1,"inconclusive: 29.1 µM [cytotoxic, single point]"
13,COc1ccc([C@H]2N[C@]3(CCCN(CC4CCCCC4)C3=O)[C@H]3C(=O)N(Cc4ccccc4)C(=O)[C@@H]23)cc1,"inconclusive: 23.1 µM [cytotoxic, partial curve, poor fit]"
14,Cc1ccc(NC(=O)C(C)Sc2nc(-c3ccccc3)c(C#N)c(=O)[nH]2)c(C)c1 (centres undefined),inactive
15,Cc1cccc(N2CCN(S(=O)(=O)c3cc(-c4cc(C)no4)ccc3C)CC2C)c1 (centres undefined),"inconclusive: 20.6 µM [cytotoxic, single point]"
16,COc1ccc(C(=O)Nc2ccc(NC(=O)c3ccccn3)cn2)cc1,"inconclusive: 3.66 µM [cytotoxic, full curve]"
17,COC(=O)COc1cccc2c(=O)n(CC(=O)NCc3ccc(F)cc3)ccc12,"inconclusive: 9.2 µM [cytotoxic, partial curve]"
18,CC(=O)c1cccc(NC(=S)NC(=O)c2ccc(C)cc2Cl)c1,inactive
19,COc1ccc(/C=C/C(=O)Nc2sc(C)c(C)c2C(=O)O)cc1,"inconclusive: 29.1 µM [rising, single point]"
20,COc1ccc2oc(=N)c(C(=O)Nc3ccc(Cl)cc3)cc2c1,"inconclusive: 29.1 µM [rising, single point]"
21,CN(C)CCC(=O)c1cccc(Br)c1,inactive
22,COc1cccc(OC)c1C(=O)N1CCN(c2c(Cc3ccccc3)c(C)nc3ncnn23)CC1,"inconclusive: 20.6 µM [cytotoxic, single point]"
23,Cc1c(NS(=O)(=O)c2cccc(C(=O)NCc3cccc(Cl)c3)c2)c(=O)n(-c2ccccc2)n1C,"inconclusive: 6.51 µM [cytotoxic, partial curve]"

row,SMILES,Potency
1,COc1ccc(-c2n[nH]c(=S)nc2-c2ccc(OC)cc2)cc1,"inconclusive: 3.66 µM [rising, partial curve, poor fit]"
2,COc1ccc(S(=O)(=O)N2CCN(Cc3ccccc3)CC2)cc1OC,"inconclusive: 25.9 µM [cytotoxic, single point]"
3,CC(=O)Nc1ccc(SCC(=O)c2cc(C)n(Cc3cccs3)c2C)cc1,"inconclusive: 13 µM [cytotoxic, partial curve]"
4,CCOCC(=O)OCC(=O)NC12CC3CC(CC(C3)C1)C2,"inconclusive: 20.6 µM [rising, single point]"
5,CC(=O)Nc1ccc(NC(=O)c2ccc3c(c2)NC(=O)c2ccccc2S3)cc1,"inconclusive: 0.259 µM [rising, partial curve]"
6,CC(C)(C)OC(=O)N1CCC(c2c(C(=O)O)cnn2-c2ccc(Cl)cc2)CC1,"inconclusive: 29.1 µM [cytotoxic, single point]"
7,CCn1c(=O)sc2cc(NS(=O)(=O)c3ccc(C)cc3)ccc21,inactive
8,CC1=C(C(=O)OCCOc2ccccc2)C(c2ccsc2)NC(=O)N1C (centres undefined),"inconclusive: 9.2 µM [cytotoxic, partial curve, poor fit]"
9,O=[N+]([O-])c1ccc(OCc2n[nH]c(=S)n2-c2ccccc2)cc1,"inconclusive: 29.1 µM [rising, single point]"
10,CCOc1ccccc1C(=O)NC1CCN(Cc2ccccc2)CC1,"inconclusive: 7.31 µM [cytotoxic, partial curve]"
11,CCCOc1ccccc1C1CC(=O)NC(C)=C1C(=O)OCC(C)C (centres undefined),"inconclusive: 2.06 µM [cytotoxic, full curve]"
12,Cc1cc(NC(=O)CSc2nnc(Cc3ccccc3)o2)no1,inactive
13,CCOC(=O)c1ccccc1NC(=O)Cc1ccc(S(=O)(=O)N2CCCC2)s1,inactive
14,CC1CCCN(S(=O)(=O)c2cccc(-c3cn4cccnc4n3)c2)C1 (centres undefined),"inconclusive: 18.4 µM [cytotoxic, single point]"
15,Cc1nnc(SCC(=O)N2CCCC(C(=O)c3ccc(Cl)cc3)C2)o1 (centres undefined),"inconclusive: 20.6 µM [cytotoxic, partial curve]"
16,O=C(OCc1c(-c2ccccc2)ncc2ccccc12)c1cccc(Br)c1,"inconclusive: 2.91 µM [rising, full curve, poor fit]"
17,CC(=O)OC(COc1cccc(C)c1)Cn1cnc2ccccc21 (centres undefined),"inconclusive: 29.1 µM [cytotoxic, single point]"
18,CCOC(=O)N1CCN(C(=O)CSc2nnc(-c3cc(OC)cc(OC)c3)o2)CC1,"inconclusive: 4.11 µM [cytotoxic, full curve]"
19,O=C(Cc1ccc2c(c1)OCCO2)Nc1cc(Cl)ccc1N1CCOCC1,inactive
20,CC(=O)Nc1ccc(C(=O)Nc2ccc(-c3nc4ccccc4[nH]3)cc2)cc1,"inconclusive: 29.1 µM [rising, single point]"
21,C=CCn1c(SCC(=O)Nc2cccc(S(N)(=O)=O)c2)nc2sc(C)c(C)c2c1=O,active: 23.1 µM
22,COc1ccc([C@@H]2[C@@H]3C(=O)N(C(C)(C)C)C(=O)[C@@H]3[C@]3(C)C(=O)N(c4ccc(C)cc4)C(=O)N23)cc1,"inconclusive: 18.4 µM [rising, single point]"
23,CCC(=O)NC(c1ccccc1Cl)c1c(O)ccc2ccccc12 (centres undefined),"inconclusive: 16.4 µM [cytotoxic, partial curve]"

row,SMILES,Potency
1,O=C(Cn1c(=O)c(C(F)(F)F)nc2ccccc21)Nc1cccc(Br)c1,inactive
2,Cc1nc2ccc([N+](=O)[O-])cc2nc1C,"inconclusive: 16.4 µM [rising, single point]"
3,O=C1NC2(CCc3ccccc32)C(=O)N1CCOc1ccc(Cl)cc1 (centres undefined),inactive
4,C[C@@]12C(=O)N(c3cccc(Br)c3)C(=O)N1[C@H](c1ccc(Cl)cc1)[C@@H]1C(=O)N(C3CCCCC3)C(=O)[C@@H]12,"inconclusive: 14.6 µM [cytotoxic, partial curve]"
5,CN(Cc1ccc(F)cc1)S(=O)(=O)c1nnc(NC(=O)c2ccccc2Cl)s1,inactive
6,Cn1nnnc1SCCCNCc1ccc(-c2ccc(F)c(Cl)c2)o1,inactive
7,Cc1nc(N)nc(N(C)c2ccccc2)c1Br,"inconclusive: 20.6 µM [cytotoxic, partial curve, poor fit]"
8,COc1ccccc1OCCCC(=O)Nc1ccc([N+](=O)[O-])cc1Br,"inconclusive: 10.3 µM [cytotoxic, partial curve]"
9,COc1cccc(/C=N/n2c(C)nc3ccccc32)c1OC,active: 11.6 µM
10,Cc1ccc(O)c(C2=Nc3ccccc3N=C(c3cccs3)C2)c1,active: 14.6 µM
11,COc1ccc(S(=O)(=O)N2CCc3cc(OC)c(OC)cc3C2)cc1,inactive
12,Cc1cc(NC(=O)CSc2nnc(COc3cccc(C)c3C)n2C)no1,"inconclusive: 12.6 µM [rising, single point]"
13,CCCNC(=O)c1cc(C2CCCN(S(=O)(=O)c3cccs3)C2)on1 (centres undefined),inactive
14,CC1(C(=O)Nc2cccc(C#N)c2)CCN1C(=O)c1ccccc1CCc1ccccc1 (centres undefined),inactive
15,O=C1NC[C@@H](CCCCN2C[C@H](Cc3ccc(O)cc3)N(CC3CCCCC3)C(=O)C2=O)N(CCc2ccccc2)C1=O,"inconclusive: 0.0073 µM [cytotoxic, full curve, poor fit]"
16,COc1ccc(CCC(=O)NCCS(=O)(=O)N2CCN(c3ccc(OC)cc3)CC2)cc1,inactive
17,Cc1cc(C)cc(NS(=O)(=O)c2ccc(N3CCCCS3(=O)=O)cc2)c1,"inconclusive: 23.1 µM [cytotoxic, single point]"
18,O=C(CN1CSCC1=O)N1CCN(S(=O)(=O)c2ccc(Cl)cc2)CC1,"inconclusive: 8.2 µM [cytotoxic, partial curve]"
19,Cc1cc(C)nc(Nc2ncc(O)n2-c2ccc(C)c(C)c2)n1,active: 11.6 µM
20,CCOC(=O)c1sc(-c2ccccc2)cc1NC(=O)Nc1ccccc1,"inconclusive: 13 µM [cytotoxic, partial curve, poor fit]"
21,CC1Oc2ccccc2C=C1/C=C1/SC(N2CCOCC2)=NC1=O (centres undefined),"inconclusive: 25.9 µM [cytotoxic, single point]"
22,O=C1CSC(=S)N1/N=C/c1cc(Br)c(O)c(Br)c1,inactive
23,Cc1ccc(NC(=O)[C@@H]2CCCN2S(=O)(=O)c2ccccc2F)cc1,"inconclusive: 29.1 µM [cytotoxic, single point]"

# A draw from above in order of heavy-atom count, rising:
row,SMILES,Potency
22,O=C1CSC(=S)N1/N=C/c1cc(Br)c(O)c(Br)c1,inactive
3,O=C1NC2(CCc3ccccc32)C(=O)N1CCOc1ccc(Cl)cc1 (centres undefined),inactive
15,O=C1NC[C@@H](CCCCN2C[C@H](Cc3ccc(O)cc3)N(CC3CCCCC3)C(=O)C2=O)N(CCc2ccccc2)C1=O,"inconclusive: 0.0073 µM [cytotoxic, full curve, poor fit]"
